{"source": "PubChem BioAssay AID445", "about": "(National Center for Advancing Translational Sciences (NCATS), 2006)", "experiment": "IkB Signaling", "details": "ABC-DLBCL IkBa-CBG/CBR dual luciferase ratio (green luciferase fused to IkBa over red control in OCI-Ly3 lymphoma cells), 4 h", "procedure,_shortened": "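Curves were fitted separately to fusion (green), unfused (red) and ratio luminescence, then classed by r2, magnitude and activity. Cells: OCI-Ly3, 4 h compound plus doxycycline at 37C; 10 uM MG-132 defined full response.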", "key": {"[1]": {"details": "measured here: control luc red channel unless noted"}}, "note": "Some of the results follow. Further columns of the screen follow, without active or inactive calls. The list favours compounds with an active or inconclusive main result. Words in brackets tell the shape of the fitted curve; partial curves, single points and poor fits give uncertain potencies."}
{"smiles": "Cc1ccc(N2CCN(c3nc4ccc(C)cc4n4nnnc34)CC2)c(C)c1", "values": [{"measurement": "AC50", "setting": "[1]", "result": "20 µM [falling, single point]"}]}
{"smiles": "CCCN(CCC)C(=O)Cn1c(=O)n(-c2cccc(C(F)(F)F)c2)c(=O)c2c(C)c(C)sc21", "values": [{"measurement": "AC50", "setting": "[1]", "result": "7.94 µM [falling, full curve]"}]}
{"smiles": "CCOC(=O)c1sc(NC(=O)c2c(C)nn(Cc3ccccc3)c2C)cc1C", "values": [{"measurement": "AC50", "setting": "[1]", "result": "25.1 µM [falling, partial curve]"}]}
{"smiles": "CCOc1cc(C(=O)Nc2ccc(-c3nc4cc(C)ccc4o3)cc2)cc(OCC)c1OCC", "values": [{"measurement": "AC50", "setting": "[1]", "result": "7.94 µM [falling, full curve, poor fit]"}]}
{"smiles": "O=C1[C@@H]2CSC(c3ccc(F)cc3)N2C(=O)N1c1ccc(Cl)cc1", "note": "(stereo not given in full)", "values": [{"measurement": "AC50", "setting": "[1]", "result": "31.6 µM [falling, single point]"}]}
{"smiles": "Cc1cccc(OCc2nnc(SCc3cc(=O)n4cc(Br)ccc4n3)o2)c1", "values": [{"measurement": "AC50", "setting": "[1]", "result": "25.1 µM [falling, partial curve, poor fit]"}]}
{"smiles": "O=C(Cn1c(=O)n2nc(-c3ccccc3)nc2c2ccccc21)Nc1ccccc1C(F)(F)F", "values": [{"measurement": "AC50", "setting": "[1]", "result": "39.8 µM [falling, single point]"}]}
{"smiles": "COc1ccc(-c2noc(C3CCCN(C(=O)CCc4ccccc4)C3)n2)cc1", "note": "(stereo not given)", "values": [{"measurement": "AC50", "setting": "[1]", "result": "12.6 µM [falling, partial curve]"}]}
{"smiles": "COc1cc(Cl)c(C)cc1NC(=O)CCc1nc2cccnc2n1-c1ccccc1", "values": [{"measurement": "AC50", "setting": "[1]", "result": "39.8 µM [falling, single point]"}]}
{"smiles": "CC1=C(C(=O)Nc2ccccc2)C(c2ccccc2)n2nc(-c3ccco3)nc2N1", "note": "(stereo not given)", "values": [{"measurement": "AC50", "setting": "[1]", "result": "1.26 µM [falling, full curve, poor fit]"}]}
{"smiles": "COc1ccc(NC(=O)Cn2c(SCc3cccc(Cl)c3)nc3ccncc32)c(OC)c1OC", "values": [{"measurement": "AC50", "setting": "[1]", "result": "12.6 µM [falling, partial curve]"}]}
{"smiles": "COc1ccc(N2CCN(C(=O)C(CCSC)N=C3NS(=O)(=O)c4ccccc43)CC2)cc1", "note": "(stereo not given)", "values": [{"measurement": "AC50", "setting": "[1]", "result": "20 µM [falling, partial curve]"}]}
{"smiles": "CCOc1ccccc1NC(=O)C(C)Sc1cc(-c2ccccc2)nc(C)n1", "note": "(stereo not given)", "values": [{"measurement": "AC50", "setting": "[1]", "result": "20 µM [falling, partial curve]"}]}
{"smiles": "Cc1ccc(NCc2cccn2-c2nnc(N3CCCCCC3)s2)cc1", "values": [{"measurement": "AC50", "setting": "[1]", "result": "15.8 µM [falling, partial curve]"}]}
{"smiles": "CCCCn1c(=O)n(-c2ccc(Br)cc2F)c(=O)c2c3c(sc21)CN(C(C)=O)CC3", "values": [{"measurement": "AC50", "setting": "[1]", "result": "20 µM [falling, single point]"}]}
{"smiles": "Cc1csc2nc(COC(=O)c3ccc(NC(=O)COc4ccccc4F)cc3)cc(=O)n12", "values": [{"measurement": "AC50", "setting": "[1]", "result": "10 µM [falling, partial curve]"}]}
{"smiles": "CCOC(=O)c1c(-c2ccccc2)[nH]c2ccc(O)cc12", "values": [{"measurement": "AC50", "setting": "[1]", "result": "15.8 µM [falling, partial curve]"}]}
{"smiles": "COc1ccccc1CNC(=O)C(=O)NCC(c1cccs1)S(=O)(=O)c1ccc(F)cc1", "note": "(stereo not given)", "values": [{"measurement": "AC50", "setting": "[1]", "result": "39.8 µM [falling, partial curve]"}]}
{"smiles": "Cc1cc(C)cc(C(=O)N(C)[C@H](Cc2ccc(-c3ccccc3)cc2)C(=O)N[C@@H](Cc2c[nH]c3ccccc23)C(=O)O)c1", "values": [{"measurement": "AC50", "setting": "[1]", "result": "20 µM [falling, partial curve]"}]}
{"smiles": "O=C(CSc1nnc2ccccn12)c1ccc(OC(F)F)cc1OC(F)F", "values": [{"measurement": "AC50", "setting": "[1]", "result": "25.1 µM [falling, single point]"}]}
{"smiles": "Oc1c(C(c2ccccc2)N2CCN(Cc3ccccc3)CC2)sc2nc(-c3ccco3)nn12", "note": "(stereo not given)", "values": [{"measurement": "AC50", "setting": "[1]", "result": "5.01 µM [rising, single point]"}]}
{"smiles": "O=C(CCn1c(=O)oc2ccccc21)Nc1ccccc1", "values": [{"measurement": "AC50", "setting": "[1]", "result": "2 µM [falling, full curve, poor fit]"}]}
{"smiles": "Cc1ccc(NC(=O)Cn2nnnc2-c2ccccc2N)cc1", "values": [{"measurement": "AC50", "setting": "[1]", "result": "20 µM [falling, partial curve, poor fit]"}]}
{"smiles": "O=C(C1CCCN(S(=O)(=O)c2cccs2)C1)N1CCN(c2cccc(Cl)c2)CC1", "note": "(stereo not given)", "values": [{"measurement": "AC50", "setting": "[1]", "result": "39.8 µM [falling, single point]"}]}
{"smiles": "Cn1c(=O)c2nc(SCC(=O)Nc3cc(Cl)ccc3Cl)n(C)c2n(C)c1=O", "values": [{"measurement": "AC50", "setting": "[1]", "result": "0.0126 µM [falling, full curve, poor fit]"}]}
{"smiles": "NC(=O)CSc1nc2c(oc3ccccc32)c(=O)n1-c1ccccc1F", "values": [{"measurement": "AC50", "setting": "[1]", "result": "0.02 µM [rising, full curve, poor fit]"}]}
{"smiles": "COc1cccc(CNC(=O)CSc2ccc(-c3sc(-c4ccccc4)nc3C)nn2)c1", "values": [{"measurement": "AC50", "setting": "[1]", "result": "25.1 µM [falling, single point]"}]}
{"smiles": "CCOc1ccc(OCC)c(NC(=O)C2CCCN(S(=O)(=O)c3ccc4c(c3)oc(=O)n4C)C2)c1", "note": "(stereo not given)", "values": [{"measurement": "AC50", "setting": "[1]", "result": "12.6 µM [falling, partial curve]"}]}
{"smiles": "CCOc1nc2ccccc2nc1NS(=O)(=O)c1ccccc1", "values": [{"measurement": "AC50", "setting": "[1]", "result": "3.98 µM [falling, full curve]"}]}
{"smiles": "CC(=O)Nc1ccc(Nc2ncnc3c2c(-c2ccccc2)cn3-c2ccccc2)cc1", "values": [{"measurement": "AC50", "setting": "[1]", "result": "12.6 µM [falling, partial curve]"}]}
{"smiles": "Cc1cc(C)cc(-n2c(SCC(=O)N3CCc4ccccc43)nc3c([nH]c4ccccc43)c2=O)c1", "values": [{"measurement": "AC50", "setting": "[1]", "result": "39.8 µM [rising, single point]"}]}
{"smiles": "Cc1ccc(OC(C)c2nnc(N)s2)cc1Cl", "note": "(stereo not given)", "values": [{"measurement": "AC50", "setting": "[1]", "result": "12.6 µM [falling, partial curve]"}]}
{"smiles": "CCOc1ccc2nc(N3CCN(C(=O)CS(=O)(=O)c4ccc(F)cc4)CC3)sc2c1", "values": [{"measurement": "AC50", "setting": "[1]", "result": "31.6 µM [falling, partial curve]"}]}
{"smiles": "Cc1ccc(Cl)c2sc(N3CCN(C(=O)C4CC4)CC3)nc12", "values": [{"measurement": "AC50", "setting": "[1]", "result": "39.8 µM [falling, single point]"}]}
{"smiles": "CC1=C/C(=C\\c2ccc3c(c2)OCO3)C(=O)S1", "values": [{"measurement": "AC50", "setting": "measured here: IkB-luc green channel", "result": "31.6 µM [rising, single point]"}, {"measurement": "AC50", "setting": "measured here: control luc red channel", "result": "20 µM [falling, partial curve]"}]}
{"smiles": "Cc1ccccc1Cn1cc(S(=O)(=O)c2ccc(Cl)cc2)c(=O)c2cc3c(cc21)OCO3", "values": [{"measurement": "AC50", "setting": "[1]", "result": "7.94 µM [falling, partial curve]"}]}
{"smiles": "COc1cccc(N2CCN(C(=O)C3CCCN(S(=O)(=O)c4ccc(Br)s4)C3)CC2)c1", "note": "(stereo not given)", "values": [{"measurement": "AC50", "setting": "[1]", "result": "15.8 µM [falling, partial curve]"}]}
{"smiles": "Cc1c(NC(=O)c2nc3ccccc3n(C)c2=O)cccc1[N+](=O)[O-]", "values": [{"measurement": "AC50", "setting": "[1]", "result": "3.16 µM [rising, partial curve]"}]}
{"smiles": "CC(=O)N1CCN(c2ccc(Oc3ncnc4sccc34)cc2)CC1", "values": [{"measurement": "AC50", "setting": "[1]", "result": "20 µM [falling, partial curve, poor fit]"}]}
